No constants are given. Whether binding was seen depends on the method and setting. Some results given as binding are weak or reduced against the parent protein; the word gives no strength.
Target: Hsp27 R12A mutant (human) (UniProt P04792)
Assay: multi-angle light scattering; molar mass and hydrodynamic radius of wild-type and R12A proteins, ASTRA 5.3.4; conditions as in refs 32, 58; both purified

By UniProt entry, the sequences of proteins in these tests, tags left out. Where a name states a change or a piece, a line headed by the entry shows the natural chain unless it says otherwise.
UniProt P04792: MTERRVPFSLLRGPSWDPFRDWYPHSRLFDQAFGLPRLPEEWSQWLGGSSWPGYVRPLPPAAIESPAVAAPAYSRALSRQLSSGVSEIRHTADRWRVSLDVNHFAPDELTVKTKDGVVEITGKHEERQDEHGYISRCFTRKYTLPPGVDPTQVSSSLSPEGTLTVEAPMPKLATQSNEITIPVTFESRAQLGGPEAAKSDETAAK

binding: binds
Substance: Hsp27 R12A mutant (from UniProt P04792 1-205)

— paper PMC3260246
